Measured values published in PubChem BioAssay AID2685 (National Center for Advancing Translational Sciences (NCATS), 2010).
This is one part of the list. The main result of the screen is listed elsewhere. These columns were measured beside it and carry no call. Compounds called inactive in the main read-out are mostly missing here. The note in brackets gives the kind of curve behind each potency; many fits are weak.

Assay: qHTS Assay for Lipid Storage Modulators in Drosophila S3 Cells;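 on cell number change: cells counted by Cell Tracker Red CMTPX staining in the red channel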
Settings: BODIPY lipid droplet fluorescence, 18-24 h; for cell number change: measured here: cell count max response, cells fed with added oleic acid
In short: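 Drosophila S3 cells loaded with oleic acid (400 uM, as added) and compounds at several concentrations; lipid droplets imaged by 488-nm laser-scanning cytometry, 500–530 nm intensity and object ratio to cell channel. Percent activity normalized to 20 uM Triacsin C.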

[1] = measured here: cell number channel AC50, cells fed with added oleic acid
[2] = measured here: lipid fluorescence (Fed channel) AC50, cells fed with added oleic acid

Row | Structure (SMILES) | cell number change | AC50 [1] | AC50 [2]
1 | COc1cc(C2C(C#N)=C(N)Oc3n[nH]c(C)c32)cc2c1OCO2 (stereo unspecified) | -23.3% | 2.06 µM [falling, full curve, poor fit] | 
2 | COc1ccc2c(=O)c3c(=O)n(Cc4ccco4)c(C4CCCCC4)nc3oc2c1 | 35.4% | 7.31 µM [rising, partial curve, poor fit] | 
3 | COc1ccc(/C=N/NC(=O)c2ccco2)cc1Cn1nc(C)cc1C | 13.5% |  | 10.3 µM [rising, partial curve]
4 | O=c1c2ccccc2nc(-c2ccoc2)n1CCc1ccccc1 | 101% | 18.4 µM [rising, single point] | 18.4 µM [rising, single point]
5 | CCCn1c(C(C)Nc2nc(-c3ccc(Cl)c([N+](=O)[O-])c3)cs2)nc2cc(Cl)c(N3CCCCC3)cc21 (stereo unspecified) | -5.5% |  | 29.1 µM [rising, single point]
6 | Cc1ccc(C(=O)Nc2nc3ccccc3n3nnnc23)cc1 | -23.5% |  | 29.1 µM [falling, single point]
7 | CC(C)c1nc(SCC(=O)Nc2ccc(N3CCOCC3)cc2)c2ccccc2n1 | -43.7% | 32.6 µM [falling, single point] | 20.6 µM [falling, single point]
8 | O=C(CCN1C(=O)C2CCCCC2C1=O)Nc1nc(-c2ccccc2)cs1 (stereo unspecified) | -29.6% |  | 29.1 µM [falling, single point]
9 | Cc1cc(C)c(S(=O)(=O)Nc2cccc(S(=O)(=O)N3CCOCC3)c2)c(C)c1 | -7.05% |  | 7.31 µM [falling, partial curve]
10 | CC12CCC(=O)N1C(C(=O)Nc1cccc(S(=O)(=O)N3CCCCC3)c1)CS2 (stereo unspecified) | 66.5% | 20.6 µM [rising, partial curve] | 4.11 µM [rising, single point]
11 | CC1CC(C)CN(C(=O)c2ccc3ncsc3c2)C1 (stereo unspecified) | -0.497% |  | 0.411 µM [rising, partial curve, poor fit]
12 | CCOC(=O)C1CCN(c2ccc(-c3cccs3)nn2)CC1 | 20.6% |  | 16.4 µM [rising, single point]
13 | Cc1cc(C)cc(-n2c(C)cc(/C=N/NC(=O)CSc3ncccn3)c2C)c1 | 11.3% |  | 0.116 µM [rising, full curve, poor fit]
14 | CC(Oc1ccc(F)cc1)C(O)CCN(C)C (stereo unspecified) | -41.6% |  | 
15 | COc1ccc(NC(=O)CSc2nc3c(c(=O)n2-c2ccccc2)SCC3)c(OC)c1 | 8.36% |  | 4.61 µM [rising, full curve]
16 | COCCNC(=O)CSc1nc2ccccc2c(=O)n1CCCC(=O)NCc1ccccc1 | 5.09% |  | 1.84 µM [rising, full curve]
17 | COc1cc(CNCc2cccnc2)ccc1OCc1ccccc1 | 109% | 1.03 µM [rising, partial curve] | 18.4 µM [rising, partial curve]
18 | CC(C)Cc1nnc(NC(=O)CCC(=O)NC2CCCc3ccccc32)s1 (stereo unspecified) | 11.9% |  | 0.00517 µM [rising, full curve, poor fit]

Row | Structure (SMILES) | cell number change | AC50 [1] | AC50 [2]
19 | Cn1cccc1C(=O)NNC(=O)c1ccccc1Br | 75% | 29.1 µM [rising, single point] | 0.731 µM [rising, full curve, poor fit]
20 | O=C(COc1ccccc1)OCC(=O)c1ccc(O)cc1O | -7.96% |  | 0.058 µM [falling, full curve, poor fit]
21 | CCOC(=O)COc1ccc(S(=O)(=O)NCc2ccco2)cc1 | -9.99% |  | 11.6 µM [falling, single point]
22 | Cc1ccc(NC(=O)COc2cccc(-n3cnnn3)c2)cc1[N+](=O)[O-] | 404% | 25.9 µM [rising, single point] | 0.58 µM [rising, single point]
23 | Nc1cc(=O)[nH]c(SCc2cccc3ccccc23)n1 | 24.3% |  | 29.1 µM [rising, single point]
24 | COc1ccc([N+](=O)[O-])cc1COc1cc(C)cc2oc(=O)cc(-c3ccccc3)c12 | 10.2% |  | 23.1 µM [falling, single point]
25 | O=C(CSc1nnc(COc2cccc3cccnc23)o1)N1CCc2ccccc21 | -18.7% |  | 7.31 µM [falling, single point]
26 | COCCCn1c(=O)/c(=C\c2ccccc2OC(C)C)s/c1=C(/C#N)C(=O)Nc1ccc(C(=O)O)cc1 | -19.6% |  | 29.1 µM [falling, single point]
27 | CCOc1ccc2nc(NC(=O)c3ccc(OCC4CCCO4)cc3)sc2c1 (stereo unspecified) | -46.4% | 18.4 µM [falling, single point] | 16.4 µM [falling, single point]
28 | CCCCCC(/C=N/Nc1ccc(S(=O)(=O)N2CCOCC2)cc1[N+](=O)[O-])=C\c1ccccc1 | -91.3% | 9.2 µM [falling, partial curve] | 
29 | O=C(CN1CCCc2ccccc21)NC(=O)NC1CCCCC1 | -5.85% |  | 0.651 µM [falling, full curve]
30 | O=S(=O)(Cc1ccc(Cl)cc1)N1CCN(Cc2ccc3c(c2)OCO3)CC1 |  | 1.84 µM [rising, partial curve] | 3.66 µM [rising, partial curve, poor fit]
31 | CC1CCC(NC(=O)c2cc(S(=O)(=O)N(C)C)ccc2N2CCCC2)CC1 (stereo unspecified) | -13% |  | 
32 | Brc1cccc(OCCSc2ncccn2)c1 | 108% | 29.1 µM [rising, single point] | 
33 | CCOc1ccc2nc(NC(=O)CSc3nnnn3C3CCCCC3)sc2c1 | -17.7% | 2.91 µM [rising, single point] | 
34 | CC(C)[C@H](NS(=O)(=O)c1ccc2c(c1)OCCO2)C(=O)OCC(=O)Nc1ccccc1 | 0.141% |  | 3.66 µM [rising, full curve]
35 | O=C(Cc1ccc(Br)cc1)Nc1cccc(-c2cn3c(n2)SCC3)c1 | 23.2% |  | 
36 | CCn1c(SCC(=O)Nc2nc3ccccc3s2)nc2c(c1=O)SC(C)C2 (stereo unspecified) | -23.9% |  | 0.58 µM [falling, partial curve, poor fit]

An excerpt from above with just cell number change.
Row,Structure (SMILES),cell number change
24,COc1ccc([N+](=O)[O-])cc1COc1cc(C)cc2oc(=O)cc(-c3ccccc3)c12,10.2%
25,O=C(CSc1nnc(COc2cccc3cccnc23)o1)N1CCc2ccccc21,-18.7%
